# Assay results: the supplement of paper PMC11438910
# The list shows a part of the results. Most of these values are background signal.
# B1: 4-127.1 (protein)
# chain 1: QVQLQESGPGLVKPSETLSLTCAVSDYSINTGHGWTWIRQPPGKGLEWIGYIGGSSGSPNYNPSLKSRVTISKDTSKNELSLKLNSVTAADTAVYYCARRIPADRSGNDFWGQGVLVTVSS
# chain 2: QSVLTQPPSVSGDPGQRVTISCTGSSSNIGGFYGYWYQQFPGTAPKLLIYDNNKRPSGISDRFSGSKSGTSASLTITGLQPGDEADYYCGSWDSSLSAHVFGSGTKLTVL
# Assays:
# Assay in all cases: fluorescence intensity of antibody binding to polysaccharide-coupled beads; higher = stronger binding
# [1] = target: pneumococcal polysaccharide Pn22A
# [2] = target: pneumococcal polysaccharide Pn22F
# [3] = target: pneumococcal polysaccharide Pn23A
# [4] = target: pneumococcal polysaccharide Pn23B
# [5] = target: pneumococcal polysaccharide Pn23F
# [6] = target: pneumococcal polysaccharide Pn24A
# [7] = target: pneumococcal polysaccharide Pn24B
# [8] = target: pneumococcal polysaccharide Pn24F
# [9] = target: pneumococcal polysaccharide Pn25A
# [10] = target: pneumococcal polysaccharide Pn25F
# [11] = target: pneumococcal polysaccharide Pn27
# [12] = target: pneumococcal polysaccharide Pn28A
# [13] = antibody concentration 81.7561 ng/mL
# [14] = antibody concentration 437.17 ng/mL
# [15] = antibody concentration 2337.65 ng/mL
# [16] = antibody concentration 12500 ng/mL
# [17] = antibody concentration 0.1 ng/mL
# [18] = antibody concentration 0.534724 ng/mL
# [19] = antibody concentration 2.8593 ng/mL
# [20] = antibody concentration 15.2894 ng/mL
binder,measurement,setting,value
B1,fluorescence intensity,[1]; [13],23 MFI
same,fluorescence intensity,[1]; [14],20.5 MFI
same,fluorescence intensity,[1]; [15],24 MFI
same,fluorescence intensity,[1]; [16],35.8 MFI
same,fluorescence intensity,[2]; [17],30.8 MFI
same,fluorescence intensity,[2]; [18],32 MFI
same,fluorescence intensity,[2]; [19],32.2 MFI
same,fluorescence intensity,[2]; [20],33.2 MFI
same,fluorescence intensity,[2]; [13],31.5 MFI
same,fluorescence intensity,[2]; [14],31.5 MFI
same,fluorescence intensity,[2]; [15],33.8 MFI
same,fluorescence intensity,[2]; [16],37.2 MFI
same,fluorescence intensity,[3]; [17],21.5 MFI
same,fluorescence intensity,[3]; [18],27.5 MFI
same,fluorescence intensity,[3]; [19],23 MFI
same,fluorescence intensity,[3]; [20],24 MFI
same,fluorescence intensity,[3]; [13],22 MFI
same,fluorescence intensity,[3]; [14],28 MFI
same,fluorescence intensity,[3]; [15],36 MFI
same,fluorescence intensity,[3]; [16],49.5 MFI
same,fluorescence intensity,[4]; [17],28.2 MFI
same,fluorescence intensity,[4]; [18],31.5 MFI
same,fluorescence intensity,[4]; [19],29 MFI
same,fluorescence intensity,[4]; [20],28 MFI
same,fluorescence intensity,[4]; [13],32 MFI
same,fluorescence intensity,[4]; [14],30.5 MFI
same,fluorescence intensity,[4]; [15],32.5 MFI
same,fluorescence intensity,[4]; [16],35 MFI
same,fluorescence intensity,[5]; [17],18 MFI
same,fluorescence intensity,[5]; [18],18.5 MFI
same,fluorescence intensity,[5]; [19],17.2 MFI
same,fluorescence intensity,[5]; [20],17.5 MFI
same,fluorescence intensity,[5]; [13],18 MFI
same,fluorescence intensity,[5]; [14],18.5 MFI
same,fluorescence intensity,[5]; [15],22.2 MFI
same,fluorescence intensity,[5]; [16],34 MFI
same,fluorescence intensity,[6]; [17],14 MFI
same,fluorescence intensity,[6]; [18],16.5 MFI
same,fluorescence intensity,[6]; [19],17.5 MFI
same,fluorescence intensity,[6]; [20],16 MFI
same,fluorescence intensity,[6]; [13],16 MFI
same,fluorescence intensity,[6]; [14],15 MFI
same,fluorescence intensity,[6]; [15],16.2 MFI
same,fluorescence intensity,[6]; [16],20.5 MFI
same,fluorescence intensity,[7]; [17],19 MFI
same,fluorescence intensity,[7]; [18],17.5 MFI
same,fluorescence intensity,[7]; [19],18.5 MFI
same,fluorescence intensity,[7]; [20],17.5 MFI
same,fluorescence intensity,[7]; [13],16.2 MFI
same,fluorescence intensity,[7]; [14],20 MFI
same,fluorescence intensity,[7]; [15],22.5 MFI
same,fluorescence intensity,[7]; [16],29 MFI
same,fluorescence intensity,[8]; [17],17.5 MFI
same,fluorescence intensity,[8]; [18],20.5 MFI
same,fluorescence intensity,[8]; [19],19.5 MFI
same,fluorescence intensity,[8]; [20],16.2 MFI
same,fluorescence intensity,[8]; [13],19.5 MFI
same,fluorescence intensity,[8]; [14],19 MFI
same,fluorescence intensity,[8]; [15],24 MFI
same,fluorescence intensity,[8]; [16],27.2 MFI
same,fluorescence intensity,[9]; [17],23.5 MFI
same,fluorescence intensity,[9]; [18],23 MFI
same,fluorescence intensity,[9]; [19],22 MFI
same,fluorescence intensity,[9]; [20],23 MFI
same,fluorescence intensity,[9]; [13],23 MFI
same,fluorescence intensity,[9]; [14],26 MFI
same,fluorescence intensity,[9]; [15],30.2 MFI
same,fluorescence intensity,[9]; [16],34.5 MFI
same,fluorescence intensity,[10]; [17],29.2 MFI
same,fluorescence intensity,[10]; [18],31.5 MFI
same,fluorescence intensity,[10]; [19],30.5 MFI
same,fluorescence intensity,[10]; [20],31 MFI
same,fluorescence intensity,[10]; [13],31 MFI
same,fluorescence intensity,[10]; [14],32 MFI
same,fluorescence intensity,[10]; [15],33.2 MFI
same,fluorescence intensity,[10]; [16],37.8 MFI
same,fluorescence intensity,[11]; [17],17.5 MFI
same,fluorescence intensity,[11]; [18],17 MFI
same,fluorescence intensity,[11]; [19],17 MFI
same,fluorescence intensity,[11]; [20],16.5 MFI
same,fluorescence intensity,[11]; [13],17 MFI
same,fluorescence intensity,[11]; [14],17.5 MFI
same,fluorescence intensity,[11]; [15],23 MFI
same,fluorescence intensity,[11]; [16],70.2 MFI
same,fluorescence intensity,[12]; [17],27.8 MFI
same,fluorescence intensity,[12]; [18],26 MFI
same,fluorescence intensity,[12]; [19],27.5 MFI
same,fluorescence intensity,[12]; [20],27 MFI
same,fluorescence intensity,[12]; [13],27.5 MFI
same,fluorescence intensity,[12]; [14],27 MFI

# In a second layout: results already given.
binder	measurement	setting	value
B1	fluorescence intensity	[12]; [18]	26 MFI
same	fluorescence intensity	[12]; [19]	27.5 MFI
same	fluorescence intensity	[12]; [20]	27 MFI
same	fluorescence intensity	[12]; [13]	27.5 MFI
same	fluorescence intensity	[12]; [14]	27 MFI
